# Source: publication PMC7527512
# The exact form of at least one protein or probe is not confirmed.
# System: MBP-CaMYB48
# Test: EMSA
# Conditions: 1- to 20-fold excess unlabeled probe decreased binding; LightShift Chemiluminescent EMSA Kit per manufacturer; temperature not stated; recombinant protein; protein details: N-terminal MBP (pMAL-c2X); label: 3' biotin (unlabeled as cold competitor)
sequence,measurement,value
AATTGGAGGGTGTTAGGTGTATTATATTAAATTTGTAAAGTT (double strand) [AT3a promoter wild-type probe],binding result,binds
